Experimental data reported in PMC9568463.
These are yes or no findings as the source states them, for the method shown. In cells and extracts the contact can be indirect. Some results given as binding are weak or reduced against the parent protein; the word gives no strength.

The chains behind the UniProt entries cited, without tags or fusion partners.
UniProt O95714: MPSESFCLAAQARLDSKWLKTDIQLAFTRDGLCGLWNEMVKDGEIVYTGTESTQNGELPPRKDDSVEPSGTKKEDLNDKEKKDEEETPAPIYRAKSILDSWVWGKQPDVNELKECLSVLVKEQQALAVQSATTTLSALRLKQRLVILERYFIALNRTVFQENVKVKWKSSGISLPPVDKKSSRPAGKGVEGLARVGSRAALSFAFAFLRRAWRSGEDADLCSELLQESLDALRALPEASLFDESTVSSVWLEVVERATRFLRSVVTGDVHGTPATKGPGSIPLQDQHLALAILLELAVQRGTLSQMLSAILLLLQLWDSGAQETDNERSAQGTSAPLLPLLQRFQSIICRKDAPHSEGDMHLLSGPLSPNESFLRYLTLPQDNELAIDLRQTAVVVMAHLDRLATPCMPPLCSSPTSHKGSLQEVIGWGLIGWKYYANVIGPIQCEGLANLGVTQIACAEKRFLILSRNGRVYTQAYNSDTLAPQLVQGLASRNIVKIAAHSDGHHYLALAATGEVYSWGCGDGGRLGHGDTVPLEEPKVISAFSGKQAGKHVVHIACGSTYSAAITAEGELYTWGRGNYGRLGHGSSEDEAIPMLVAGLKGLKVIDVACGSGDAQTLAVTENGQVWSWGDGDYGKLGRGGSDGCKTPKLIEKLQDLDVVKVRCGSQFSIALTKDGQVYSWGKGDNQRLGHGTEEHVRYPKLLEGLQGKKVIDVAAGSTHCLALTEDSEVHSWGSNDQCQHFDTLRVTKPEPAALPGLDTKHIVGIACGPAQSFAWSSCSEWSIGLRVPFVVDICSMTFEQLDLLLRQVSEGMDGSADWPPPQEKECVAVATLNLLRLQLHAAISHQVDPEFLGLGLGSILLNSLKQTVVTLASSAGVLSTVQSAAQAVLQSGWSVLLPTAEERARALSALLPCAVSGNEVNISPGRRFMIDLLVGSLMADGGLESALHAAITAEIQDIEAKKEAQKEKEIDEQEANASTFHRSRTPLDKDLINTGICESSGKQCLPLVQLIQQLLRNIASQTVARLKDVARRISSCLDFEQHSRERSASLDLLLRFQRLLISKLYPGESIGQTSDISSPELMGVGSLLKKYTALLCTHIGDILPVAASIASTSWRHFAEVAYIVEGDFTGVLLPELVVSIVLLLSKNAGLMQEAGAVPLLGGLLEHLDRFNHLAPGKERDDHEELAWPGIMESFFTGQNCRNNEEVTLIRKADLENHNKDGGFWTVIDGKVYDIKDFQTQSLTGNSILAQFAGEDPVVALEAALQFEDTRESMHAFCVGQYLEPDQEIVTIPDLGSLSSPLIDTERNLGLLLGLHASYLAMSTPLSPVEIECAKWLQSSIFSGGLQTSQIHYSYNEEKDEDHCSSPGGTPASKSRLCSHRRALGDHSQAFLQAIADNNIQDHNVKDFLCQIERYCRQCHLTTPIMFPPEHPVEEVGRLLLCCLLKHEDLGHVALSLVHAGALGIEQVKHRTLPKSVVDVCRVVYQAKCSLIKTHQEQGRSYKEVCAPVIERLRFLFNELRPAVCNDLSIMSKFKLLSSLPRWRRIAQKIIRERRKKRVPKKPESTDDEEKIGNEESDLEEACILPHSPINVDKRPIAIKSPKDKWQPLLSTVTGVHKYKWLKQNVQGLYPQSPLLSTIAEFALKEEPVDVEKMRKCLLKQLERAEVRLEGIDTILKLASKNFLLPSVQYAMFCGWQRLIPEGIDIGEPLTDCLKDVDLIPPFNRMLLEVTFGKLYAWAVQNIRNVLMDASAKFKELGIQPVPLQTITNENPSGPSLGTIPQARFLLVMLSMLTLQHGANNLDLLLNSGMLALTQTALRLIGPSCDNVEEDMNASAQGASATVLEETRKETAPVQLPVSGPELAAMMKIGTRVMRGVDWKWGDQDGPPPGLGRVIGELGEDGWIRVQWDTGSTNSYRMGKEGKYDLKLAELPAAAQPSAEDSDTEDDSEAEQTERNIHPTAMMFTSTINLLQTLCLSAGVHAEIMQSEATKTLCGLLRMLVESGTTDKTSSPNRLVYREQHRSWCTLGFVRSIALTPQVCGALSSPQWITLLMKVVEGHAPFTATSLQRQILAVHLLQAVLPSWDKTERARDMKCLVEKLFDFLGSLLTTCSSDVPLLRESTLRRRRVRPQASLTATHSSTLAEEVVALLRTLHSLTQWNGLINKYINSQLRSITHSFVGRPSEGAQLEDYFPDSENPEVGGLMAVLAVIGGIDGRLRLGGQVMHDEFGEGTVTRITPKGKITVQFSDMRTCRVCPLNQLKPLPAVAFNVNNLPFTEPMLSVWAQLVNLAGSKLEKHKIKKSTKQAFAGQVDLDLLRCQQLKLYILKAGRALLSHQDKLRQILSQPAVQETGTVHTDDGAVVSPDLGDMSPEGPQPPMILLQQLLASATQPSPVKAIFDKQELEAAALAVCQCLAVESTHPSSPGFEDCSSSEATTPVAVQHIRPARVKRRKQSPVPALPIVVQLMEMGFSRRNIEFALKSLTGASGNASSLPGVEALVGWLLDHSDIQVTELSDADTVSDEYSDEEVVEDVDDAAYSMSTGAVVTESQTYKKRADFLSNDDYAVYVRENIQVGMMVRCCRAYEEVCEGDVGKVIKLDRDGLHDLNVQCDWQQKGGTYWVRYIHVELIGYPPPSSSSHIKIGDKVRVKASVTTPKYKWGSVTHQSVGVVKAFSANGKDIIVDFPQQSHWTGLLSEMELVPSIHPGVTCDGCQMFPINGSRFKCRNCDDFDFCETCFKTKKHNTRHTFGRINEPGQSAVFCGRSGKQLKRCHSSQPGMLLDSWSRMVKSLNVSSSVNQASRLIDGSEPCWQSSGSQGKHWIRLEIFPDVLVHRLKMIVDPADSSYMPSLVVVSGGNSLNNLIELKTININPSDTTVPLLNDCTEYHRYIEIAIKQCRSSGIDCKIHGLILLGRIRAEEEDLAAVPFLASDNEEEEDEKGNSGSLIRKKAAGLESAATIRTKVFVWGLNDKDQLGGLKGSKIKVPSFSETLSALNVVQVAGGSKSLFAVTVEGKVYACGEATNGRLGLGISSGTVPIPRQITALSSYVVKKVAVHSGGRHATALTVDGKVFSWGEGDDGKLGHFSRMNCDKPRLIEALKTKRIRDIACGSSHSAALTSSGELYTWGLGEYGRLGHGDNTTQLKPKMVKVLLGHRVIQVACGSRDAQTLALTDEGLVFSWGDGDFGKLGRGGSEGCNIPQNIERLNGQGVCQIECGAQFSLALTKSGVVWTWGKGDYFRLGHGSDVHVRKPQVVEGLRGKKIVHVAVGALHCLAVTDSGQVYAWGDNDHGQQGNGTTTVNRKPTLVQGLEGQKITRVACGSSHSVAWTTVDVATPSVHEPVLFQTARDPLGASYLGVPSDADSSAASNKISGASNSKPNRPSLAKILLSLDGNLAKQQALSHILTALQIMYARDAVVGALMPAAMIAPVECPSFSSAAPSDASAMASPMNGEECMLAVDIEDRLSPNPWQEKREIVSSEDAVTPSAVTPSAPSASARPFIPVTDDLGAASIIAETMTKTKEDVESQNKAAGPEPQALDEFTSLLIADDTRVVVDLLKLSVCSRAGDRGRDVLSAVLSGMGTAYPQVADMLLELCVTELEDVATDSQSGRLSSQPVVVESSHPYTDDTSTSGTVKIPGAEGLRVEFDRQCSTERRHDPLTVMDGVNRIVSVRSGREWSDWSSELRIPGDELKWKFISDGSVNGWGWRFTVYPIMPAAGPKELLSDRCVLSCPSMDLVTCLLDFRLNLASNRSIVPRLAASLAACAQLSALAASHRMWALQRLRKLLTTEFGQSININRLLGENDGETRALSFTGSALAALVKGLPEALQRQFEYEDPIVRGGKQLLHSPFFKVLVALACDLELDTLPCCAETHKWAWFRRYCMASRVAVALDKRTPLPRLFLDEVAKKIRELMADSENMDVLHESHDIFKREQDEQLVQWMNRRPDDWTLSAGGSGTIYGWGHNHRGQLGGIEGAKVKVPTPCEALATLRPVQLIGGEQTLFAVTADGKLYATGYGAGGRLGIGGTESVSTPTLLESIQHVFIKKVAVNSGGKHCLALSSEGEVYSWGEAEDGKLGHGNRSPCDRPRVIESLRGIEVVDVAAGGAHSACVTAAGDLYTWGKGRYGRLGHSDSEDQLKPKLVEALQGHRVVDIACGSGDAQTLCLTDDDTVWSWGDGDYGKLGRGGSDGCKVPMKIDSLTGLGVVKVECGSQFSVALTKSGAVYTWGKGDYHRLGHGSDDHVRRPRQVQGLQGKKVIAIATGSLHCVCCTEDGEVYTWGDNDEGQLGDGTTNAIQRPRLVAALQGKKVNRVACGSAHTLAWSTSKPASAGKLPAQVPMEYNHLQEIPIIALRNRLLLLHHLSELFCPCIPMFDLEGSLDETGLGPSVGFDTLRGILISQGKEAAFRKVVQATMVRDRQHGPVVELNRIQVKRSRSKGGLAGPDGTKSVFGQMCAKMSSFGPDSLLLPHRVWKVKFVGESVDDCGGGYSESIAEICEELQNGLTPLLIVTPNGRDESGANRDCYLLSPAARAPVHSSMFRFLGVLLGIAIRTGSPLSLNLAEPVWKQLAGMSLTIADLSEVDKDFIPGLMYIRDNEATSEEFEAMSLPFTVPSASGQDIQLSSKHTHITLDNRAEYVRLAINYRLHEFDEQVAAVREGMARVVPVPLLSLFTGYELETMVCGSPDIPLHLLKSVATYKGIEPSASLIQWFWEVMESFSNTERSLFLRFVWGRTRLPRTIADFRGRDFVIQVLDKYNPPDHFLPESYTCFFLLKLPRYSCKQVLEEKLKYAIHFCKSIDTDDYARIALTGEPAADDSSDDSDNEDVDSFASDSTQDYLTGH
UniProt P15056: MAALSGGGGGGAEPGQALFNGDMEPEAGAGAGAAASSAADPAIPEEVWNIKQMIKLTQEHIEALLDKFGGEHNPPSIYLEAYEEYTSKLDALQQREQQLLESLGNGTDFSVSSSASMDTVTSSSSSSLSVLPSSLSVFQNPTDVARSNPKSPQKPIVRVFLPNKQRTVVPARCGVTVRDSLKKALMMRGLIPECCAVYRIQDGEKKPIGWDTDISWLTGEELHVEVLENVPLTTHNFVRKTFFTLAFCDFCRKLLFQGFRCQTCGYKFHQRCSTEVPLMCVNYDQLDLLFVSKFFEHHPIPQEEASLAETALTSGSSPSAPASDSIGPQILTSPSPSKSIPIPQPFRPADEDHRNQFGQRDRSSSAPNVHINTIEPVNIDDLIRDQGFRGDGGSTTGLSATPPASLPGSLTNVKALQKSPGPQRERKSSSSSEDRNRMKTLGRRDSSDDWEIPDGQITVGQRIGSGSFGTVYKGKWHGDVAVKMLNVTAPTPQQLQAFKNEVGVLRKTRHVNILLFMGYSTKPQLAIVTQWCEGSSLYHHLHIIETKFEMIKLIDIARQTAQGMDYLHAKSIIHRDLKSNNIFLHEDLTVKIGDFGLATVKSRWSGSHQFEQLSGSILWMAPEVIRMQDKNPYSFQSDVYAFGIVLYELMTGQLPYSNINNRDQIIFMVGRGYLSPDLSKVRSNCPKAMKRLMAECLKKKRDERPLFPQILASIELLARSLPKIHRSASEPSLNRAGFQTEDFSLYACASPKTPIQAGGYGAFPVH

What was measured:
[1] = target: HERC2 (HECT and RCC1-like domain 2), endogenous (human (endogenous in U2OS and HEK 293T)) (UniProt O95714); test: co-IP; HEK 293T lysates in CHAPS buffer (10 mM Tris-HCl pH 7.5, 100 mM NaCl, 0.3% CHAPS); anti-HERC2 polyclonal antibody bvg3, 2 h at 4 °C, protein A-Sepharose; pre-immune serum as negative control; immunoblot of endogenous proteins
[2] = target: HERC2 (HECT and RCC1-like domain 2), endogenous (human (endogenous in U2OS and HEK 293T)) (UniProt O95714); test: co-IP; U2OS lysates in CHAPS buffer (10 mM Tris-HCl pH 7.5, 100 mM NaCl, 0.3% CHAPS); anti-HERC2 polyclonal antibody bvg3, 2 h at 4 °C, protein A-Sepharose; pre-immune serum as negative control; immunoblot of endogenous proteins
[3] = target: GFP-C-RAF fusion protein, full-length (UniProt P04049); test: pull-down; GFP pull-down: lysates of co-transfected HEK 293T cells incubated with GFP-TrapA (ChromoTek) for 2 h at 4 °C, washed five times with CHAPS buffer; GFP fusion held on the beads; immunoblot

binding [1]	binding [2]	binding [3]	Substance
binds	binds	–	B-RAF, endogenous (from UniProt P15056 1-766)
binds	binds	–	C-RAF, endogenous (from UniProt P04049 1-648)
–	–	binds	Flag-HERC2 full-length fusion protein (from UniProt O95714 1-4834)
no binding	no binding	–	HERC1, endogenous (from UniProt Q15751 1-4861)
